Laboratory results taken from patent publication US10689415B2 (YEDA RESEARCH AND DEVELOPMENT COMPANY LTD., priority 2006, dated 2020).

Key:
[1] = general procedure: Fmoc solid-phase peptide synthesis; Fmoc-Lys(Boc)-Wang resin; 2-chlorotrityl chloride resin; HOBt/PyBOP/DIEA; HOBt/DIC; conditions: for isolated mass / isolated yield: whole synthesis; for conjugation yield: conjugation step
[2] = test system: C6-glioma xenografts; experiment: In vivo MRI of C6 glioma xenografts with contrast agent; set-up: species or system CD1 nude male mice; conditions: 15 μmol/kg, about 10 min after injection

Substance: 3^1-oxo-15- methoxycarbonylmethyl- Rhodobacteriochlorin 13^1-(2- sulfoethyl)amide-17^3- (GRGDSP)amide potassium salt
- isolated mass ([1]; scale 0.35 mmol): 264 mg
- isolated yield ([1]; scale 0.35 mmol): 58%

Substance: 3^1-oxo-15- methoxycarbonylmethyl- Rhodobacteriochlorin 13^1-(2- sulfoethyl)amide-17^3- (cycloRGDfK)amide potassium salt
- conjugation yield [1]: 52%

Substance: 3^1-oxo-15-methoxycarbonylmethyl-Rhodobacteriochlorin 13^1-(3-DTPA-amido-N-propyl)amide-17^3-(cycloRGDfK)amide
- isolated mass ([1]; scale 0.1 mmol): 61 mg
- isolated yield ([1]; scale 0.1 mmol): 37%

Substance: (GRGDSP)4K
- conjugation yield [1]: 41%

Substance: Copper(II) 3^1-oxo-15- methoxycarbonylmethyl- Rhodobacteriochlorin 13^1-(2- sulfoethyl)amide-17^3- (cycloRGDfK)amide potassium salt
- step yield ([1]; late stage modification step): 86%

Substance: Manganese(III) 13^2-OH-Bacteriopheophorbide a [Compound 9]
- tumor/normal relaxivity ratio [2]: ~1.4

Substance: Palladium 3^1-oxo-15- methoxycarbonylmethyl- Rhodobacteriochlorin 13^1-(2- sulfoethyl)amide-17^3- (cycloRGDfK)amide potassium salt
- conjugation yield [1]: 23%

Substance: Palladium 3^1-oxo-15- methoxycarbonylmethyl- Rhodobacteriochlorin 13^1-(2- sulfoethyl)amide-17^3-(RGD- 4C)amide potassium salt
- conjugation yield [1]: 18%

Substance: Palladium 3^1-oxo-15- methoxycarbonylmethyl- Rhodobacteriochlorin-13^1-(2,3- dihydroxypropyl)amide-17^3- (cycloRGDfK)amide
- conjugation yield [1]: 50%
